Hit rate of the full screen: of about 53,000 sequences, about 3,700 (7%) were called active.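 The calls were made as follows: active = gene knockdowns whose robust z-score for IL-1 alpha signal is at least 2 or at most -2, so actives lie on both sides; inactive = the rest.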 The list shows a part of the results.

The assay is described as follows: Components of the Cytosolic LPS Sensing Pathway: Gene Identification via Genome-wide siRNA Screen.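 Also: robust z of the log signal after scaling to non-targeting control siRNA wells of the plate.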 Conditions: RAW264.7 macrophages, IL-1a HTRF, actives lie on both sides, screened at 100 nM (by protocol), cells primed 5 h with Pam3CSK4 first. The method, boiled down: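 Three distinct siRNAs per gene were tested singly at 100 nM in RAW264.7 macrophages. Following Pam3CSK4 priming and 24 hour LipidA transfection, IL-1a secretion was read by HTRF.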
A general note: TR-FRET usually uses a lanthanide donor and a delayed reading to cut background.
On to GGCCAAGAUCAUGAUCACCTT against Cldn4, for which the z-score was inactive: -0.314.

As for GGUUCAAUAUGAAGUUGUUTT against Iqcf3, the z-score was inactive: -0.896.

With GGCAUGAUAACUUGAAAUGTT against Dnah11, the z-score was inactive: 0.97.

GGCACUUCUUUCCAAGACGTT against Gbp7: the z-score was inactive: -0.373.

Turning to GGCUCUCAUCCAUCUCCUUTT against Olfr715, the z-score is inactive: -1.79.

As to GGAUGAAUGGUUUAUUGUUTT against Ecd, the z-score was inactive: -0.903.

For the sequence GCCGUACUUUGUCUUUGACTT against Fam187b, the z-score was inactive: -1.65.

Turning to GGAACUAGCACAAUGGUUCTT against Alkbh5, the z-score was inactive: 1.21.

Regarding CGAUUUAAGGAUUUUUACCTT against Dcun1d1, the z-score was inactive: 0.571.

Turning to GGUAUACAAAUCAAAUGUCTT against Nufip1, the z-score was inactive: -0.805.

Turning to GGGAUUGAAUCAUAGUUAGTT against Ankrd42, the z-score was inactive: 0.0447.

GGAAAGCAAAAAGUUUCAGTT against Fam118b: the z-score is inactive: -1.14.

As for GCGGCUUAUGUCUCAAAUUTT against Gcdh, the z-score is active: 2.34.

As to GGAACUGGUGAAGCUCACUTT against Ublcp1, the z-score was inactive: 0.304.

As for CGAACAGAUCCGAAAAUCUTT against Antxrl, the z-score was inactive: 1.8.

On to GGUUCCUGUAUCACAUGCGTT against Hkdc1, for which the z-score was inactive: -0.809.

Take GCUUACCUCUAGAUACACUTT against Snrpd1: the z-score is inactive: -1.61.

GGUGCUGGCAACCUUUUGUTT against Masp1: the z-score is inactive: 0.16.

In the case of CCUUUGUGAUGGAUGUUUATT against Dexi, the z-score was inactive: -0.0842.

As to “GAAGUGAUGCUGCUAGUAGTT against A030005L19Rik”, the z-score is inactive: -2.

Consider CCAUAUGGCAGUUUUGGCUTT against Vmn1r65, for which the z-score was inactive: -1.3.

Take GCACCAUUGACUCAGUUAATT against Gipc2: the z-score is inactive: -1.3.

As for GGCCGGAGAAAAACUUUUGTT against Olfr1406, the z-score is inactive: -0.504.

Take GGUGAAUGUAUAAGUUAUGTT against Icam1: the z-score is inactive: 1.

For GCGAAUGCUGGAGAAACUUTT against Aif1, the z-score is inactive: -0.351.

With GCCCACUCACACCUAUUCUTT against Olfr1388, the z-score is inactive: 0.406.

GGAUGAUUUCCAGAUCCAGTT against Nrsn1: the z-score is inactive: -0.633.

For the sequence CCGUACUUAUGUUAGCUGATT against Csnk1a1, the z-score was inactive: 1.04.

Regarding GCUAUUGACAUAAUGAGGCTT against Nfe2l3, the z-score is inactive: -1.41.

On to GGAGGAAGACACUCCCUCUTT against Atf4, for which the z-score is inactive: -0.778.

On to GGGCAUCAUCACUUGUGCCTT against Kcp, for which the z-score was inactive: 0.891.

On to GCUCAUGCAACUCUGCGUUTT against Dpyd, for which the z-score was inactive: -0.693.

Turning to GGUUUGCCCUGACACUUGUTT against Rtbdn, the z-score is inactive: -0.754.

Turning to GCAAUGAGCCAUUAAAGUGTT against Prxl2b, the z-score is inactive: 0.331.

Take CCACAUCUAGAUUUUGACUTT against Cep295: the z-score was inactive: -0.56.

GCUACAACCCUGUCUGACATT against P4hb: the z-score was inactive: -0.79.

Regarding GCUAGUGGUAAGUCAACCATT against Iqsec1, the z-score was inactive: -0.882.

With GCUGCUUACACAGGAUGUATT against Abcd3, the z-score was inactive: -0.146.

With GCCAAGGAUGCAGAUAUCGTT against Slc25a45, the z-score was inactive: -0.842.

On to CCCUUAUCAUCGUCAAUAGTT against Slc50a1, for which the z-score is inactive: 0.932.

GGCCCAAGAGAACAUCAAATT against Speer2: the z-score was active: -2.16.

With GGAUAGUGUGGUUUUAUAUTT against Ercc6l, the z-score is inactive: -0.351.

In the case of GUCAGAACCAUAGCCAUGATT against Vmn1r202, the z-score is inactive: -0.623.

Regarding GGAGUUUACAUGAGUACUATT against Slco1a6, the z-score is inactive: 0.577.

GAACGGGUUACCAUGUGGUTT against Xkr9: the z-score was inactive: 0.546.

Regarding CCUUCAUGUAAUGAAGGCCTT against Rps10, the z-score was inactive: 0.549.

Regarding GGACACAGACAAUGAAAUGTT against Fetub, the z-score is active: -2.35.

As to “CCCGCUUGUUCUGAUGAUATT against 2310039H08Rik”, the z-score was active: -2.26.

For GGAUGACAUCCAGACCAUGTT against Calcoco1, the z-score was inactive: 0.715.

With GCUUCCAAUUACUUAUCCATT against Phc3, the z-score is inactive: -0.0705.

In the case of GCUUCGUGGGUGAAGGAUATT against Ofcc1, the z-score is inactive: -1.21.

On to GGCCAUUUGUCACAUAUGUTT against Tyk2, for which the z-score is inactive: -0.436.

In the case of GCUUCACGUUGGCUUUCCUTT against Vmn2r123, the z-score was inactive: 0.306.

As for GGAAUAAUCAAGCUAGGGATT against Satb2, the z-score is active: -2.2.

Turning to GCCCUACAAAAAAGUUAUUTT against Bnip2, the z-score is inactive: 0.889.

As for GGUGCACAUUCAGAACGAUTT against Dtd1, the z-score was inactive: -0.613.

Regarding GGCUCAUGUGGUAUAGAAATT against Il1rapl2, the z-score was inactive: 0.0445.

For the sequence GCUGUACCCAUCUGAUCACTT against Galnt15, the z-score is inactive: 0.618.

Turning to GGCUCUUCGAGACUUUGAGTT against Pde4dip, the z-score was inactive: -0.362.

For the sequence CCUAUCAAGGCCAAUUCACTT against Jph2, the z-score is inactive: 0.00908.

As for GGUAGAAAAGAAAAAGACCTT against Stc1, the z-score is inactive: 1.27.

As for CCUGGAGGAGUAUUUACACTT against H2-Ob, the z-score is inactive: -1.17.

Take GCCCGAUGUCAUGUGGACATT against Eya2: the z-score is inactive: -0.895.

Regarding CCUUUACGUUUCUGUGUCUTT against Slc37a4, the z-score is inactive: -1.19.

As for GGUGGUCCUGGAUCUUUAUTT against Spon2, the z-score was inactive: -0.986.

For GGAUCUGCUCUCUUAGAAGTT against Gzmn, the z-score was inactive: -0.351.

With GGUACACUACAUGACUCAUTT against Sall4, the z-score was active: 2.35.

As for GCAUGUCCGUUUAUGUCACTT against Trp53inp2, the z-score is inactive: -0.00352.

Take GGCAGGAUCCUUUUCUCUATT against Als2: the z-score was inactive: -1.44.

Consider GCAGACUCCAUGCAAAACUTT against Slc5a8, for which the z-score is inactive: 0.133.

With GGAUUACUGAUCUCCAAAATT against Cenpe, the z-score is inactive: 0.835.

In the case of GGAGAACUUUGAUAUGGAGTT against Cuedc2, the z-score is inactive: -0.365.

Consider GCCAACUAUACAUCUUAUCTT against Sftpa1, for which the z-score is inactive: 0.915.

With CUUUGAGCUUGGAAGUAAATT against Mup21, the z-score is inactive: 0.294.

As to GGAUCAUUAACCCUGAAAUTT against Dscam, the z-score is inactive: -0.723.

With GGAGAUGACAAAUCUAGUGTT against Smgc, the z-score is inactive: 0.835.

On to GCAUUAAGCAAUGGCAUCATT against Cbfa2t2, for which the z-score was inactive: 0.21.

Take GGUGCUUCUAAACUCAGAGTT against Spg20: the z-score was inactive: 0.482.

For GGGAAAGGAAGUUGUUUUGTT against Epha2, the z-score is inactive: 0.878.

As to CCAGGUAUUCUGAUAUCAGTT against Cd209d, the z-score is inactive: 0.713.

Take GGACUGUUCAUUGAUUGUATT against Sugct: the z-score is inactive: 1.47.

With GCCUUGAUCCUACUGUAACTT against Amigo3, the z-score was active: 2.12.

Regarding “GGACUAUCUAGCAUAUACUTT against E130006D01Rik”, the z-score was inactive: 0.788.

In the case of GGCUGUUUUUGCCGGUAUCTT against Teddm3, the z-score is inactive: 1.58.

Consider GGGACUAAUUCCAAUUUCATT against Pomt1, for which the z-score was inactive: 0.279.

For the sequence GGGAUCAUAAAGAUAACUUTT against Fasn, the z-score is active: 2.2.

With GGCCCUUCUACAGAAGUUCTT against Pld4, the z-score was inactive: -0.0788.

As to GGAGCAUAGAAAAGACAAUTT against Grk2, the z-score is active: 2.69.

GGCAGUGGAGCUGGACAAATT against Nkx2-5: the z-score is active: 2.45.

Take GGCCAAGUUUGACAAGGAATT against Nap1l5: the z-score is active: 2.32.

As for GCGGGUCAUAAAUCUGAUUTT against Aldh3a1, the z-score is inactive: 1.11.

With GCUGAAACGAUUUCUUACUTT against Runx1t1, the z-score was inactive: 0.248.

As for GGAGGACAUAAAAUAUCUATT against Trim17, the z-score was inactive: -0.0172.

Regarding GGCGGUUCAAAUGUCCUCATT against Fut2, the z-score was active: -2.02.

On to GCCAUUUUUGAUGGUAUACTT against Atp6v1a, for which the z-score was inactive: -0.411.

Turning to AGCCAAAGAAUGCAAAACATT against Snrpn, the z-score is inactive: -1.13.

As to AGCUAAAAGAUCAUUGGAGTT against Ear10, the z-score is inactive: 0.358.

With GGAAGCCAAACAGUUAUUUTT against Drosha, the z-score was inactive: -1.08.

As to AACAUGUCCAACCUAGGCATT against Lefty1, the z-score was inactive: -1.44.

In the case of GCCAGUGUCCCUAAUAAGGTT against Ager, the z-score was inactive: 0.2.

Regarding GGAAUUCAUGGAUAAGAAGTT against Hnmt, the z-score was inactive: 0.191.

In the case of GGUGCACACAAUAAAUUAATT against Fcgr3, the z-score was inactive: -0.173.

As for GGUGUAUGAGUUUGAGUUUTT against Lacc1, the z-score was inactive: -0.849.

For the sequence GCUAACGGUGUAACCAAGATT against Dennd2c, the z-score was inactive: 1.

With GGAUUCUUGGCUUUAAGACTT against Smg7, the z-score is inactive: 1.54.

For the sequence GGCUCGAAGGAAAUGAGUUTT against Dppa3, the z-score was inactive: 1.28.

Turning to CCUGUUCAUAUGUAGUGCATT against Cox16, the z-score was inactive: -1.35.

The values are drawn from PubChem BioAssay AID1508600 (Functional Genomics Laboratory (NCATS/FGL), 2020).
